PubChem BioAssay AID1688 (National Center for Advancing Translational Sciences (NCATS), 2009)
Among all 220,000 compounds or so, about 2,400 (1.1%) were called active. The shares of active, inactive and inconclusive entries below differ from those in the screen. The call rests on the fitted dose curve; in most records, active means well fitted inhibition curve with a large enough effect; inconclusive means small, poorly fitted or top-dose-only effect, or effect the other way; inactive means no such curve, though single readings can be large or run the other way. Potencies beside an inconclusive call are fits to weak or partial responses and may not hold up.
On the % scale 0 is the no-effect control and ±100 the full control effect; potency means the concentration at half of the fitted maximal effect.

Assay: qHTS Multiplex Assay to Identify Dual Action Probes in a Cell Model of Huntington: Aggregate Formation (GFP); further: nearly all actives have a fitted effect of over 60% in size
Details: PC12 HttQ103-GFP aggregates, Acumen cytometry, 40 h; activity change, negative = inhibition: at 46.1 µM (top of the series) unless noted
Summary of the method: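 Using laser scanning cytometry, GFP-positive aggregates were counted after lysis of PC12 cells induced with 100 nM tebufenozide to express HTT exon 1 Q103–GFP. Compounds were tested in titration.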
For `COc1ccc(-c2nsc(SCC(=O)NCc3ccc4c(c3)OCO4)n2)cc1`, the Potency was “inactive”. For `COc1ccccc1CNC(=O)CC(C)C`, the Potency was inconclusive: 6.31 µM [inhibitor, single point]. For `S=c1nc(C2CCCCC2)[nH][nH]1`, the Potency was “inactive”. For `Cn1nc([N+](=O)[O-])c2c(-c3nc4ccccc4s3)c(N)n(C3CCCCC3)c2c1=O`, the Potency was inconclusive: 2.24 µM [activator, partial curve]. For `COC(=O)c1cc(CNC(=O)c2cccc(Cl)c2)ccc1OC`, the Potency was “inactive”. With `Cc1ccc(SCC(=O)Nc2ccc(C(=O)Nc3ccc(O)cc3)cc2)cc1` the activity change, negative = inhibition was inactive: 15.5% [at 9.22 µM]. In the case of `O=C(c1ccco1)N1CCN(CC(O)Cn2c3ccccc3c3ccccc32)CC1` (stereo not drawn), the Potency is reported as inconclusive: 12.6 µM [inhibitor, single point]. With `CCOC(=O)CN1CC23C=CC(O2)C(C(=O)NCc2cccs2)C3C1=O` (stereo not drawn) the activity change, negative = inhibition was inactive: -18.7% [at 9.22 µM]. For `O=C(Nc1cccc(Cl)c1)Nc1cc(S(=O)(=O)N2CCOCC2)ccc1N1CCCC1`, the Potency was inconclusive: 35.5 µM [inhibitor, single point]. With `COC(=O)CCC(=O)Nc1ccc(OC)cc1` the Potency was inconclusive: 1.41 µM [inhibitor, partial curve]. In the case of `CC(C)(C)c1ccc(Oc2ccc(NC(=O)C3CC=CCC3C(=O)O)cc2)cc1` (stereo not drawn), the Potency is reported as inconclusive: 0.794 µM [activator, single point]. For `C=C(C)COc1ccc(-c2nc(N)nc(C)c2-c2ccc(OC)cc2)c(O)c1`, the Potency was inconclusive: 0.501 µM [activator, full curve, poor fit]. With `C=CCn1c(N2CCCCCC2)nc2c1c(=O)n(C)c(=O)n2C` the Potency was inconclusive: 25.1 µM [inhibitor, partial curve]. With `COc1ccc(/C=N/NC(=O)c2cccc(Br)c2)cc1CSc1ccccn1` the Potency was inconclusive: 25.1 µM [inhibitor, single point]. With `Cc1ccc(C(=O)Nc2cc(C(C)C)c(O)c(C(C)C)c2)cc1` the Potency was active: 10 µM. In the case of `COc1ccccc1Oc1ccc(-c2cnc3ccccc3n2)cc1[N+](=O)[O-]`, the Potency is reported as inconclusive: 35.5 µM [inhibitor, single point]. With `CC(C)(C)c1ccc(OCC(O)CS(=O)(=O)c2ccccn2)cc1` (stereo not drawn) the Potency was inconclusive: 31.6 µM [inhibitor, single point]. For `Cc1ccccc1N(CC(=O)N/N=C/c1ccc(N(C)C)cc1)C(=O)c1ccccc1`, the Potency was inconclusive: 35.5 µM [inhibitor, single point]. In the case of `CCn1ncc(CN2CCN(C(=O)Nc3ccccc3C(=O)OC)CC2)c1C`, the Potency is reported as inconclusive: 1 µM [inhibitor, full curve]. For `CC(=O)N1CCc2cc(Br)cc(S(=O)(=O)CCC(=O)N3CCN(c4ccccn4)CC3)c21`, the Potency was “inactive”. In the case of `CCCc1[nH]nc2c1C(/C(C)=C/c1ccccc1)C(C#N)=C(N)O2` (stereo not drawn), the Potency is reported as “inactive”. With `CCC1(C)CC2(CCCN(CCC(=O)c3ccccc3)C2)CCO1` (stereo not drawn) the Potency was “inactive”. In the case of `O=C(CN1C(=O)S/C(=C\c2ccc(Cl)cc2)C1=O)NNC(=O)c1ccccc1O`, the Potency is reported as “inactive”. In the case of `CC(C)c1ccc(NC(=O)COc2nncc3ccccc23)cc1`, the Potency is reported as “inactive”. For `Clc1cccc(NCc2ccccc2)n1`, the Potency was “inactive”. For `Cc1cc(=O)[nH]c(N/N=C/c2ccccn2)n1`, the Potency was inconclusive: 3.55 µM [inhibitor, partial curve]. In the case of `O=C1c2ccsc2SCCN1Cc1c(Cl)cccc1Cl`, the Potency is reported as active: 22.4 µM. For `O=C(COC(=O)CNC(=O)c1ccc(Cl)cc1)Nc1ccc2c(c1)OCCO2`, the Potency was “inactive”. For `CCN(CC(=O)Nc1c(C(=O)OC)[nH]c2ccc(C)cc12)c1ccc2c(c1)OCO2`, the Potency was inconclusive: 31.6 µM [inhibitor, single point]. In the case of `CC(C)(C)c1ccc(CN(Cc2ccco2)Cc2nnnn2C2CCCC2)cc1`, the Potency is reported as inconclusive: 35.5 µM [inhibitor, single point]. In the case of `Cc1ccc2oc(=O)c3cc(C(=O)NCCCN4CCc5ccccc5C4)sc3c2c1`, the Potency is reported as “inactive”. For `CSC1=N/C(=C\c2ccc(C)o2)C(=O)S1`, the Potency was inconclusive: 8.91 µM [activator, partial curve]. For `CCN1C(=O)/C(=C2/C=Cc3ccccc3N2CC)SC1=S`, the Potency was “inactive”. For `CCc1ccc(NC(=O)C(C)OC(=O)c2cccc(S(=O)(=O)N3CCc4ccccc4C3)c2)cc1` (stereo not drawn), the Potency was inconclusive: 5.62 µM [activator, single point]. In the case of `CC(=O)Nc1ccc(C(=O)N/C(=C/c2ccccc2)C(=O)Nc2cccc(C(=O)O)c2)cc1`, the activity change, negative = inhibition is reported as inactive: 24.5% [at 9.22 µM]. With `NC(=O)C1(N2CCCCC2)CCN(CC(=O)Nc2ccccc2-c2ccccc2)CC1` the Potency was “inactive”. For `Cc1ccccc1-c1nc(CSc2nc3c(c(=O)[nH]2)CCC3)c(C)o1`, the Potency was “inactive”. In the case of `CCOC(=O)c1csc(NNC=O)n1`, the Potency is reported as “inactive”. For `Cc1ccc(C(=O)n2ncn(C)c2=S)cc1`, the Potency was “inactive”. For `O=C(c1cn[nH]c1)c1cc(F)ccc1O`, the Potency was inconclusive: 22.4 µM [inhibitor, single point]. With `Cc1ccc(-c2nc(N=Nc3ccc(O)cc3)n[nH]2)cc1` the Potency was inconclusive: 7.08 µM [inhibitor, full curve, poor fit]. In the case of `COc1ccc(N2CSC3=C(C#N)C(c4cc(OC)c(OC)cc4OC)CC(=O)N3C2)c(OC)c1` (stereo not drawn), the Potency is reported as “inactive”. With `O=C(Nc1cccc(Cl)c1Cl)C1CC(=O)N(c2ccc(Br)cc2)C1` (stereo not drawn) the Potency was inconclusive: 14.1 µM [inhibitor, partial curve, poor fit]. In the case of `CCC(=O)c1ccc(N2CCN(C(=O)c3ccccc3Br)CC2)c(F)c1`, the Potency is reported as inconclusive: 10 µM [inhibitor, single point]. With `CCOC(=O)c1[nH]c(C)c(/C=N/O)c1C` the Potency was inconclusive: 10 µM [inhibitor, partial curve]. In the case of `O=C(COc1c(F)c(F)c(C(F)(F)F)c(F)c1F)Nc1ccc(N2CCOCC2)c(Cl)c1`, the Potency is reported as inconclusive: 35.5 µM [inhibitor, single point]. For `c1ccc(CCNc2ncnc3ccccc23)cc1`, the Potency was active: 1.78 µM. With `COc1ccc(C)cc1NC(=O)C(NCC1CCCO1)c1ccccc1` (stereo not drawn) the Potency was “inactive”. For `c1ccc(OCc2nn3c(-c4ccncc4)nnc3s2)cc1`, the Potency was inconclusive: 15.8 µM [inhibitor, single point]. With `Cc1ccc(N=Cc2sc(O)c3ccccc23)c(C)c1` the Potency was inconclusive: 31.6 µM [activator, single point]. In the case of `Cc1c(C)n(C(=O)CN2CCN(c3ccccc3)CC2)c2ccccc12`, the Potency is reported as inconclusive: 3.16 µM [inhibitor, single point]. In the case of `OC(c1ccc(OCc2ccccc2)cc1)c1nnc(-c2ccccc2)o1` (stereo not drawn), the Potency is reported as inconclusive: 15.8 µM [inhibitor, single point]. For `N#Cc1c(Cl)nsc1NC(=O)c1ccccc1`, the Potency was active: 3.98 µM. With `CC(C)Nc1nc(C#N)nc(NC(C)C)n1` the Potency was inconclusive: 28.2 µM [activator, single point]. In the case of `Cc1nn(CCc2n[nH]c(=S)n2C2CCCCC2)c(C)c1Br`, the Potency is reported as “inactive”. For `Cc1cc(NC(=O)CN(C)S(=O)(=O)c2cccc(Cl)c2)no1`, the Potency was inconclusive: 0.316 µM [activator, full curve, poor fit]. With `O=[N+]([O-])c1cccc(/C=C/c2nc3ccc([N+](=O)[O-])cc3[nH]2)c1` the Potency was inconclusive: 22.4 µM [inhibitor, single point]. For `CCc1ccccc1Nc1nc(N)nc(CSc2nnnn2C)n1`, the Potency was inconclusive: 35.5 µM [inhibitor, single point]. For `Cc1ccc(F)c(NC(=O)/C(C#N)=C(\O)c2ccc(C(C)(C)C)cc2)c1`, the Potency was “inactive”. For `C/C=C(/C)C(=O)O[C@@H]1[C@H](OC(C)=O)c2c(ccc3ccc(=O)oc23)OC1(C)C`, the Potency was inconclusive: 5.01 µM [activator, full curve, poor fit]. For `S=C(NCc1ccc2c(c1)OCO2)NCc1ccco1`, the Potency was inconclusive: 35.5 µM [inhibitor, single point]. For `CCn1c(=N)n(CC(O)COc2cccc(C)c2)c2ccccc21` (stereo not drawn), the Potency was inconclusive: 0.631 µM [activator, full curve]. In the case of `CC1CCCC(NC(=S)Nc2cccc(S(=O)(=O)N(C)C)c2)C1C` (stereo not drawn), the Potency is reported as inconclusive: 35.5 µM [inhibitor, single point]. In the case of `CC(C)Oc1ccc(C(=O)Nc2ccc([N+](=O)[O-])cc2)cc1`, the Potency is reported as inconclusive: 11.2 µM [inhibitor, single point]. For `COc1ccc(NC(=O)C2CCN(S(C)(=O)=O)CC2)cc1`, the Potency was inconclusive: 5.62 µM [activator, single point]. For `Fc1ccc(CN2CCCCCCC2)cc1F`, the Potency was inconclusive: 1 µM [activator, partial curve]. In the case of `COc1ccc(-c2cc(C(F)(F)F)n3ncc(C(=O)NCC4CCCO4)c3n2)cc1` (stereo not drawn), the Potency is reported as inconclusive: 2.51 µM [activator, full curve, poor fit]. In the case of `Cc1c(C(=O)NC2=NCCS2)oc2ccccc12`, the Potency is reported as inconclusive: 0.282 µM [inhibitor, partial curve]. In the case of `Cc1ccc(C)c(NC(=S)NCc2ccc3[nH]c4c(c3c2)CCCC4)c1`, the Potency is reported as inconclusive: 35.5 µM [inhibitor, single point]. In the case of `CCCOc1cc(C)nc(-c2ccccc2O)n1`, the Potency is reported as inconclusive: 14.1 µM [inhibitor, single point]. In the case of `Cc1cc(Oc2ccccc2)nc(SCC(=O)Nc2ccc(Cl)c(Cl)c2)n1`, the Potency is reported as inconclusive: 17.8 µM [inhibitor, single point]. For `COc1ccc(-c2cc(C)nc3nc(N)nn23)cc1`, the Potency was inconclusive: 8.91 µM [activator, single point]. For `COC(=O)C1=C(C)N(C)C(=S)NC1c1ccccc1` (stereo not drawn), the Potency was active: 3.16 µM.
